Laboratory results reported in PubChem BioAssay (NCATS).
The shares of active, inactive and inconclusive entries below differ from those in the screen. A potency beside an inconclusive call is a rough fit, not a confirmed value. Activity calls are given as the source filed them. Calls come from the whole dose curve; as a rule, active = well fitted cell-killing curve with a large enough effect; inconclusive = small, poorly fitted or top-dose-only effect, or effect the other way; inactive = no such curve, though single readings can be large or run the other way.

test: Quantitative High-Throughput drug screen in 47 multiple myeloma cell lines against the NCATS MIPE library collection: MOLP8_DSMZ cell viability assay (AID 1918977); details: MOLP8 myeloma viability, CellTiter-Glo ATP luminescence, 48 h; viability (% of control): at 45.8 µM (top of the series); note: nearly all actives have a fitted effect of over 45% in size
Excerpt: PI: Beverly A. Mock Ph.D.
Laboratory of Cancer Biology and Genetics,
Center for Cancer Research, National Cancer Institute,
National Institute of Health, Bethesda, Maryland
Drug resistance and disease progression are common in multiple myeloma (MM) patients, underscoring the need for new therapeutic combinations. […] We hypothesized that effective combinations would reduce MYC expression and enhance p16 activity. […] These preclinical data identify potentially useful drug combinations for evaluation in drug-resistant MM and reveal potential mechanisms of combined drug sensitivity.
Described herein is the primary MIPE qHTS used to cherrypick compounds. Validated compounds were then further tested for potential synergistic activiy.
[1] Peat TJ, Gaikwad SM, Dubois W, Gyabaah-Kessie N, Zhang S, Gorjifard S, Phyo Z, Andres M, Hughitt VK, Simpson RM, Miller MA, Girvin AT, Taylor A, Williams D, D'Antonio N, Zhang Y, Rajagopalan A, Flietner E, Wilson K, Zhang X, Shinn P, Klumpp-Thomas C, McKnight C, Itkin Z, Chen L, Kazandijian D, Zhang J, Michalowski AM, Simmons JK, Keats J, Thomas CJ, Mock BA. Drug combinations identified by high-throughput screening promote cell cycle transition and upregulate Smad pathways in myeloma. Cancer Lett. 2023 Aug 1;568:216284. doi: 10.1016/j.canlet.2023.216284. Epub 2023 Jun 24. PMID: 37356470; PMCID: PMC10408729.
SEQUENCE No. (e.g., 1, 2, 3, etc.); […] (e.g., Cells, Incubation, Reagent, etc.); VALUE and DESCRIPTION.
1; Cells; 5 uL; white, solid bottom 1536-well Greiner assay plate.
2; Compounds; 23 nL; Kalypsis pin tool (Wako USA) equipped with a 1536-well pin head to transfer to the assay plates.
3; Incubation; 48 hours; 37C incubation.
4; Reagent;5uL; CellTiter Glo (Promega).
5; Detector; 425V; Luminescence; Viewlux PerkinElmer.
NOTES (numbers refer to Sequence numbers above)
1. The cell-based screening methods employed in this study were like those previously published. Briefly, the corresponding myeloma cell lines were screened in 1,536-well plates with 500 cells, 5-uL per well for inhibition of cell viability (assessed by measuring ATP levels with CellTiterGlo).
2. NCATS MIPE 4.0 library of approved and investigational drugs were added using the Kalypsis pin tool. Wells treated with DMSO only for 100% viability and media only for 0% viability were used as controls.
3. The assay plates were covered and incubated for 48 hours in a 37C, 5% CO2 incubator with controlled humidity.
4. After 48 hours, CellTilter-GloTM luminescent substrate mix (Promega) reagent was added to the assay plate and plates we incubated for 5 min at room temperature.
5. Signal was measured as median relative luminescence units on a ViewLux (PerkinElmer) multiplate reader.
[1] Heske CM, Davis MI, Baumgart JT, Wilson K, Gormally MV, Chen L, Zhang X, Ceribelli M, Duveau DY, Guha R, Ferrer M, Arnaldez FI, Ji J, Tran HL, Zhang Y, Mendoza A, Helman LJ, Thomas CJ. Matrix Screen Identifies Synergistic Combination of PARP Inhibitors and Nicotinamide Phosphoribosyltransferase (NAMPT) Inhibitors in Ewing Sarcoma. Clin Cancer Res. 2017 Dec 1;23(23):7301-7311. doi: 10.1158/1078-0432.CCR-17-1121. Epub 2017 Sep 12. PMID: 28899971; PMCID: PMC6636827.
Potency is the fitted concentration of half-maximal effect.

SMILES	Potency	viability (% of control)
Cc1cnc(Nc2cccc(CN3CCOCC3)c2)nc1Nc1cccc(S(=O)(=O)NC(C)(C)C)c1	active: 2.96 µM	–
CC(Cc1ccc(O)c(O)c1)(NN)C(=O)O (stereo not given)	inconclusive: 26.4 µM [cytotoxic, single point]	–
CCN(CC)CCOc1ccc(Nc2ncc3cc(-c4c(Cl)cccc4Cl)c(=O)n(C)c3n2)cc1	active: 0.059 µM	–
Nc1ncnc2c1c(-c1cccc(OCc3ccccc3)c1)cn2C1CC(CN2CCC2)C1 (stereo not given)	inconclusive: 4.18 µM [cytotoxic, full curve, poor fit]	–
CCN(CC)CCOc1ccc(Cc2ccccc2)cc1	inconclusive: 3.32 µM [cytotoxic, partial curve, poor fit]	–
Cc1cc(Nc2cc(N3CCN(C)CC3)nc(C=Cc3ccccc3)n2)n[nH]1	active: 9.59 µM	–
COc1ccc(C2(C#N)CCC(C(=O)O)CC2)cc1OC1CCCC1 (stereo not given)	inconclusive: 0.296 µM [rising, full curve, poor fit]	–
COc1cc2nccc(Oc3ccc(NC(=O)Nc4cc(C)on4)c(Cl)c3)c2cc1OC	inconclusive: 26.4 µM [cytotoxic, partial curve, poor fit]	–
COc1cccc2nc(-c3cccs3)nc(NN3C(=O)C=C(C)C3=O)c12	inconclusive: 0.166 µM [cytotoxic, full curve]	–
CN(C)C(=O)COC(=O)Cc1ccc(OC(=O)c2ccc(N=C(N)N)cc2)cc1	–	inactive: 99.2%
Fc1ccc([C@@H]2CCNC[C@H]2COc2ccc3c(c2)OCO3)cc1	–	inconclusive: 63% [cytotoxic]
CC(C)[N+]1(C)[C@@H]2CC[C@H]1CC(OC(=O)C(CO)c1ccccc1)C2 (stereo not given in full)	–	inactive: 126%
Nc1ncnc2c1c(-c1cccc(OCc3ccccc3)c1)cn2C1CC(CN2CCCC2)C1 (stereo not given)	active: 16.6 µM	–
c1cc(OCCN2CCCCC2)cc(-c2n[nH]c3ccc(-c4ncn[nH]4)cc23)c1	inconclusive: 41.8 µM [cytotoxic, partial curve, poor fit]	–
O=C(NC[C@H](O)CO)c1ccncc1Nc1ccc(I)cc1F	inconclusive: 3.32 µM [cytotoxic, partial curve]	–
CC(O)C1C(=O)N2C(C(=O)O)=C(SC3CNC(C(=O)N(C)C)C3)C(C)C12 (stereo not given)	inconclusive: 3.32 µM [rising, partial curve, poor fit]	–
Cn1cnc2c(F)c(Nc3ccc(Br)cc3F)c(C(=O)NOCCO)cc21	–	inactive: 75.3%
Cc1cc(-c2nnc3n2CCCCC3)c(C)n1-c1ccccc1	inconclusive: 16.6 µM [cytotoxic, partial curve, poor fit]	–
FC(F)(F)c1ccc(C=Cc2nc(COc3ccc(CCCCn4ccnn4)cc3)co2)cc1	inconclusive: 0.105 µM [cytotoxic, full curve, poor fit]	–
CN1CCN(c2ccc3nc(-c4c(N)c5c(F)cccc5[nH]c4=O)[nH]c3c2)CC1	active: 5.9 µM	–

3 entries drawn at random from the list so far, as already listed:
SMILES	Potency	viability (% of control)
CN(C)C(=O)COC(=O)Cc1ccc(OC(=O)c2ccc(N=C(N)N)cc2)cc1	–	inactive: 99.2%
c1cc(OCCN2CCCCC2)cc(-c2n[nH]c3ccc(-c4ncn[nH]4)cc23)c1	inconclusive: 41.8 µM [cytotoxic, partial curve, poor fit]	–
CC(O)C1C(=O)N2C(C(=O)O)=C(SC3CNC(C(=O)N(C)C)C3)C(C)C12 (stereo not given)	inconclusive: 3.32 µM [rising, partial curve, poor fit]	–

(list continues)

SMILES	Potency	viability (% of control)
NC(N)=Nc1nc(CSCCC(N)=NS(N)(=O)=O)cs1	inconclusive: 0.187 µM [rising, full curve, poor fit]	–
O=S(=O)(NCCNCC=Cc1ccc(Br)cc1)c1cccc2cnccc12	inconclusive: 10.5 µM [cytotoxic, partial curve, poor fit]	–
CCOc1ccccc1OCCNC(C)Cc1ccc(OC)c(S(N)(=O)=O)c1 (stereo not given)	–	inactive: 99.1%
COc1cc2ncnc(Nc3cc(Br)c(O)c(Br)c3)c2cc1OC	–	inactive: 75.6%
O=C1CCC(N2C(=O)c3ccccc3C2=O)C(=O)N1 (stereo not given)	inconclusive: 18.7 µM [cytotoxic, partial curve, poor fit]	–
CCOc1cc(C(=O)Nc2ccc(Cl)c(-c3nc4ccccc4[nH]3)c2)cc(OCC)c1OCC	–	inactive: 66.8%
CCOc1cc2ncc(C#N)c(Nc3ccc(F)c(Cl)c3)c2cc1NC(=O)C=CCN(C)C	active: 20.9 µM	–
COc1cc(OC2CCN(C)CC2)ccc1Nc1ncc2c(n1)n(C1CCCC1)c(=O)n2C	inconclusive: 18.7 µM [cytotoxic, partial curve]	–
Cc1cc(Nc2nc(N[C@@H](C)c3ccc(F)cc3)c(C#N)cc2F)n[nH]1	inconclusive: 2.09 µM [cytotoxic, partial curve, poor fit]	–
CCCOc1ccc(C(=O)OCCN(CC)CC)cc1N	–	inactive: 128%
Cc1[nH]nc2ccc(-c3cncc(OC[C@@H](N)Cc4ccccc4)c3)cc12	active: 0.526 µM	–
COc1ccc(OC)c(-c2nnc3ccc(-c4ccc(OC)c(O[C@@H]5CCOC5)c4)nn23)c1	active: 9.35 µM	–
CC(=O)N[C@@H]1[C@H](O[C@@H]2c3ccc(c(Cl)c3)Oc3cc4cc(c3O[C@H]3O[C@H](CO)[C@@H](O)[C@H](O)[C@H]3NC(=O)CCCCCCCC(C)C)Oc3ccc(cc3Cl)C[C@H]3NC(=O)[C@H](N)c5ccc(O)c(c5)Oc5cc(O)cc(c5)[C@H](NC3=O)C(=O)N[C@H]4C(=O)N[C@H]3C(=O)N[C@@H]2C(=O)N[C@@H](C(=O)O)c2cc(O)cc(O[C@H]4O[C@H](CO)[C@@H](O)[C@H](O)[C@H]4O)c2-c2cc3ccc2O)O[C@H](CO)[C@@H](O)[C@@H]1O	–	inactive: 112%
CCC(=C(c1ccc(O)cc1)c1ccc(OCCNC)cc1)c1ccccc1	active: 26.4 µM	–
CC1=C(C(=O)Nc2cc3cn[nH]c3cc2F)C(c2ccc(Cl)cc2F)N=C(c2ccnc(Cl)c2)N1 (stereo not given)	inconclusive: 11.8 µM [cytotoxic, partial curve, poor fit]	–
N=C(N)c1ccc2cc(OC(=O)c3ccc(N=C(N)N)cc3)ccc2c1	inconclusive: 18.7 µM [cytotoxic, partial curve, poor fit]	–
CC1=NN(c2ccccc2)C(=O)C1	–	inactive: 137%
COc1cc(NCc2ccc3nc(N)nc(N)c3c2C)cc(OC)c1OC	active: 5.26 µM	–
COc1cc2c(cc1-c1c(C)noc1C)ncc1[nH]c(=O)n([C@H](C)c3ccccn3)c12	active: 0.296 µM	–
CCC(C(=O)O)C1CCC(C)C(C(C)C(O)C(C)C(=O)C(CC)C2OC3(C=CC(O)[C@@]4(CC[C@](C)(C5CC[C@@](O)(CC)C(C)O5)O4)O3)C(C)CC2C)O1 (stereo not given in full)	active: 0.743 µM	–
